In PubChem BioAssay AID1671190 (National Center for Advancing Translational Sciences (NCATS), 2021):
Out of some 580,000 compounds screened, about 6,100 (1.1%) were called active. The inconclusive results got no clear call from the source; some entries with a clear call stand among them for comparison. Calls follow the shape of the dose curve; as a rule, active = well fitted inhibition curve with a large enough effect; inconclusive = small, poorly fitted or top-dose-only effect, or another doubt; inactive = no such curve, though single readings can be large or run the other way. Where the call is inconclusive, the potency comes from a doubtful curve fit.

Amino acid sequences for entries named in this document (tags omitted).
UniProt P18054, whole entry, looked up: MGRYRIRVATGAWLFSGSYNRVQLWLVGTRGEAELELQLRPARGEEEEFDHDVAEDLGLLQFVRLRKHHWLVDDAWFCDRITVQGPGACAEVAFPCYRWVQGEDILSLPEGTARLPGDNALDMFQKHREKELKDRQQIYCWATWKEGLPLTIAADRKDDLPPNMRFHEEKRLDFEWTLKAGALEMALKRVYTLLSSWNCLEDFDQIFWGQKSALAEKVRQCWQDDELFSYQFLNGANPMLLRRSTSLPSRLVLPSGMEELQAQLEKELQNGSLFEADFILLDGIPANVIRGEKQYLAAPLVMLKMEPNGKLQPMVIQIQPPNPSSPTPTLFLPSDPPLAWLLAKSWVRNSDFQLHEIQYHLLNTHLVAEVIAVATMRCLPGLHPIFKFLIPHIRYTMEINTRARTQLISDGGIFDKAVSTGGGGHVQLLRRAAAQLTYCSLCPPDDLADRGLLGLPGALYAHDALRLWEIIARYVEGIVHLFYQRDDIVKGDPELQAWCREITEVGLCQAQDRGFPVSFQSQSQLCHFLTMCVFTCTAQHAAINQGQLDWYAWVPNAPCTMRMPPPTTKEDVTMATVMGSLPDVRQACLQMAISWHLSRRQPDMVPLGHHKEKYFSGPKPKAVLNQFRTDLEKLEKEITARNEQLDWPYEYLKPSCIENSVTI

Target: Polyunsaturated fatty acid lipoxygenase ALOX12 (Homo sapiens) (UniProt P18054)
Experiment: Primary qHTS assay for inhibitors of human arachidonate 12S-lipoxygenase (ALOX12): Round 2
Settings: purified 12hLO, xylenol orange hydroperoxide absorbance; activity change, negative = inhibition: at 108 µM (top of the series) unless noted
Summary of the method: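 Purified human 12hLO at 150 nM in 25 mM Hepes, 0.01% Triton X-100, pH 7.0, preincubated 15 min at room temperature with compound. Reaction started with 40 uM arachidonic acid, 30 min at room temperature. Hydroperoxide measured by Fe-xylenol orange, 573/405 nm absorbance ratio.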
% is scaled to controls: 0 for no effect and ±100 for the full control effect; potency is read from the fitted curve at half-maximal effect.

Structure (SMILES)	activity change, negative = inhibition	Potency
CCN(CC(=O)Nc1c(F)cccc1F)C(=O)Cc1csc(-c2ccc(OC)c(OC)c2)n1	inactive: 1.77%	
O=C(Nc1ccc2c(c1)OCO2)Nc1ccccc1F	inactive: 0%	
C=CCN(CC=C)C(=O)C1CC(=O)N(c2ccc(Br)cc2)C1 (centres undefined)		inconclusive: 44.7 µM [inhibitor, partial curve, poor fit]
CC1CCN(C(=O)c2[nH]cnc2C(=O)N[C@@H](C)C(=O)OCc2ccccc2)CC1	inactive: -16.8%	
CCOc1ccc(NC(=O)CN(C)C(=O)c2cn(-c3ccc(F)cc3)nc2-c2cccc(OC)c2)cc1OCC		inconclusive: 7.08 µM [inhibitor, full curve, poor fit]
CN(Cc1ccco1)C(=O)c1ccc(S(C)(=O)=O)cc1	inactive: 35.7%	
COc1cc(CNc2ccc(N3CCOCC3)c(C(=O)O)c2)cc(Br)c1OCC(N)=O		inconclusive: 100 µM [inhibitor, partial curve, poor fit]
Cc1ccc(-n2ccnc(SCC(=O)NCCc3ccccc3)c2=O)cc1F		inconclusive: 112 µM [inhibitor, partial curve, poor fit]
COc1ccc(CCNC(=S)Nc2cc(C)ccc2C)cc1		inconclusive: 35.5 µM [inhibitor, single point]
CC(C)CNC(=O)COc1ccc2c3c(c(=O)oc2c1)CCC3	inactive: 7.28% [at 57.4 µM]	
CSc1ncc(C(=O)NCc2ccccc2Cl)c(C)n1		inconclusive: 44.7 µM [inhibitor, partial curve, poor fit]
OC(C[n+]1ccccc1)c1ccccc1 (centres undefined)		inconclusive: 31.6 µM [inhibitor, partial curve, poor fit]
CC(C)CNC(=O)c1cn(C2CCN(Cc3nc4ccccc4s3)CC2)nn1	inactive: 27.2%	
COc1ccc(OC)c(CNc2ncc(-c3ccc(F)cc3)n2C)c1	inactive: 4.25%	
CC(=O)Nc1ccc(S(=O)(=O)N[C@H]2CO[C@H]3[C@@H]2OC[C@@H]3n2nnnc2Oc2ccc3c(c2)OCO3)cc1	inactive: 1.32%	
N#CCCN(Cc1ccccc1)C(=S)NC(=O)c1ccccc1	inactive: -21%	
COc1ccc(NC(=O)CC2C(=O)NCCN2C(=O)Nc2ccc(C(F)(F)F)cc2)cc1 (centres undefined)		inconclusive: 39.8 µM [inhibitor, partial curve, poor fit]
O=C(NNC(=O)c1cc(-c2ccncc2)nc2ccccc12)c1ccccc1O		inconclusive: 10 µM [inhibitor, full curve]
Nc1ccc2[nH]c(=S)sc2c1		inconclusive: 31.6 µM [inhibitor, partial curve, poor fit]
O=C1/C(=C/c2ccncc2)SC(=S)N1Cc1ccccc1		inconclusive: 44.7 µM [inhibitor, partial curve, poor fit]
O=C(NC1CCCCC1)N1Cc2[nH]cnc2C[C@H]1c1nc(-c2ccc3ccccc3c2)no1		active: 10 µM
O=C(CSc1ccccn1)Nc1ccc2c(c1)oc1ccccc12	inactive: -9.15%	
Cc1cc(C)c2nc(Nc3nc(-c4ccccc4)cc(=O)[nH]3)nc(C)c2c1	inactive: 1.57%	

Structure (SMILES)	activity change, negative = inhibition	Potency
O=C1Cc2cc(C(=O)CSc3ccc4c(c3)OCCCO4)ccc2N1		inconclusive: 28.2 µM [inhibitor, partial curve, poor fit]
CCN(c1ccc(NC(=O)COC(=O)c2cc(C)nc3ccccc23)cc1)C(C)C		inconclusive: 6.31 µM [inhibitor, full curve, poor fit]
CCN(CC)S(=O)(=O)c1cc(NS(=O)(=O)c2cccc(Cl)c2Cl)ccc1C		inconclusive: 3.55 µM [inhibitor, full curve, poor fit]
CCOC(=O)c1ccc(N2CCCCC2)c(NS(=O)(=O)c2ccc(C)cc2)c1	inactive: 103%	
CS(=O)(=O)Nc1ccccc1CNC(=O)CC1CCCCC1	inactive: 18.8%	
COc1cccc(C(C(=O)NC2CCCC2)N(C(=O)c2ccco2)c2ccc(-n3cnnn3)c(C)c2)c1OC (centres undefined)		inconclusive: 89.1 µM [inhibitor, single point]
CCCCn1nnnc1C(c1ccc(OC)cc1)N1CCN(C/C=C/c2ccccc2)CC1 (centres undefined)		inconclusive: 39.8 µM [inhibitor, partial curve, poor fit]
O=C(O)c1ccc(CN2CC(CNC(=O)c3ccccc3)C3(C2)CN(c2ccccc2)C3)cc1 (centres undefined)	inactive: 15.7%	
Cc1ccc(S(=O)(=O)N2CCN(C3CC4CCC3C4)CC2)cc1 (centres undefined)		inconclusive: 0.398 µM [inhibitor, full curve, poor fit]
O=C(Nc1ccc2c(c1)OCO2)C1CCCN(S(=O)(=O)Cc2ccccc2)C1 (centres undefined)		inconclusive: 0.224 µM [inhibitor, full curve, poor fit]
NC(=S)NNc1ccc(Cl)c(Cl)c1		active: 15.8 µM
Cc1ncccc1C(=O)N1CCCC(c2cc(C(=O)Nc3ccc(C(C)(C)C)cc3)no2)C1 (centres undefined)	inactive: 0.28%	
Cc1ccc(CN2CCN(/N=C/c3ccc(O)c(O)c3)CC2)cc1		inconclusive: 6.31 µM [inhibitor, full curve, poor fit]
CCn1c(C(=O)N2CCCC(C(=O)NCCc3ccc(C)cc3)C2)cc2sccc21 (centres undefined)	inactive: 16.5%	
Cc1cc(NC(=O)CCC(=O)N(Cc2ccco2)C(C(=O)NC2CCCC2)c2ccccc2F)no1 (centres undefined)	inactive: -4.55%	
COC(=O)/C=C1/N/C(=N\c2nc(C)cc(C)n2)N(c2ccc(Cl)cc2)C1=O		inconclusive: 56.2 µM [inhibitor, partial curve, poor fit]
Cc1noc(C)c1-c1cc2cc(CN(C)C)oc2c(NCC(C)C)n1		inconclusive: 112 µM [inhibitor, partial curve, poor fit]
CCc1n(CC(O)COC2CCCCC2)c2ccccc2[n+]1C (centres undefined)		inconclusive: 44.7 µM [inhibitor, partial curve, poor fit]
CCOc1ccc(-n2c(SCC(=O)N3CCc4ccccc43)nnc2-c2c[nH]c3ccccc23)cc1	inactive: 12.6%	
COc1ccc(OC)c(-n2cnc3c2NC(=O)CC3c2ccsc2)c1 (centres undefined)		inconclusive: 28.2 µM [inhibitor, partial curve, poor fit]
CC(C)(C)c1ccc(C(=O)NC(Nc2cccc(Cl)c2)C(Cl)(Cl)Cl)cc1 (centres undefined)	inactive: 9.02%	
CCOc1ccc(NC(=O)C(C)Oc2ccccc2C(=O)Nc2ccc(C)c(Cl)c2)cc1 (centres undefined)		inconclusive: 2.51 µM [inhibitor, full curve]
Cc1ccc(OCCOC(=O)C2CCN(S(=O)(=O)c3ccc(C)c(C)c3)CC2)cc1		inconclusive: 2.82 µM [inhibitor, full curve, poor fit]

Look-ups from the entries so far:
CCOC(=O)c1ccc(N2CCCCC2)c(NS(=O)(=O)c2ccc(C)cc2)c1 | activity change, negative = inhibition: inactive: 103%
CCn1c(C(=O)N2CCCC(C(=O)NCCc3ccc(C)cc3)C2)cc2sccc21 (centres undefined) | activity change, negative = inhibition: inactive: 16.5%
CCOc1ccc(NC(=O)C(C)Oc2ccccc2C(=O)Nc2ccc(C)c(Cl)c2)cc1 (centres undefined) | Potency: inconclusive: 2.51 µM [inhibitor, full curve]
Cc1ccc(S(=O)(=O)N2CCN(C3CC4CCC3C4)CC2)cc1 (centres undefined) | Potency: inconclusive: 0.398 µM [inhibitor, full curve, poor fit]

Continued:

Structure (SMILES)	activity change, negative = inhibition	Potency
OCc1c[nH]c(=S)n1CCOc1cccc(C(F)(F)F)c1		inconclusive: 31.6 µM [inhibitor, partial curve, poor fit]
COc1ccc(/C=C/C(=O)Nc2ccc(Cl)c(Cl)c2)cc1OC		inconclusive: 56.2 µM [inhibitor, partial curve, poor fit]
COC(=O)[C@]1(C)N[C@H](CN(C)C(=O)COc2ccccc2)[C@@H]2C(=O)N(C)C(=O)[C@@H]21		inconclusive: 39.8 µM [inhibitor, partial curve, poor fit]
Cc1cc(NC(=O)c2cc(-c3ccccc3C)nc3ccccc23)no1		inconclusive: 79.4 µM [inhibitor, single point]
COc1ccc(OCCSC(C)C(N)=O)cc1 (centres undefined)	inactive: 0.76%	
CCOC(=O)c1c(N)sc(C(N)=O)c1C	inactive: -14%	
CNC(=O)C1CCN(Cc2cccc(C(F)(F)F)c2)CC1	inactive: 50.2%	
O=C(NN=C1CCCCCCC1)c1ccc(F)cc1	inactive: -2.82%	
CC1(c2ccc(Cl)cc2Cl)NC(=O)N(CC(=O)NCCC2=CCCCC2)C1=O (centres undefined)		inconclusive: 44.7 µM [inhibitor, partial curve, poor fit]
COC(=O)c1c(-c2ccc(OC)cc2)c2c(c3c4cc(OC)ccc4n(S(=O)(=O)c4ccc(F)cc4)c13)C(=O)N(C)C2		inconclusive: 56.2 µM [inhibitor, partial curve, poor fit]
CC(=O)Nc1ccc(NC(=O)Nc2sc3nc4n(c(=O)c3c2C)CCC(C)CC4)cc1 (centres undefined)	inconclusive: -55.1% [inhibitor]	
COc1ccc(-c2ccc(=O)n(CC(=O)Nc3ccc(N(C)C)cc3)n2)cc1		inconclusive: 63.1 µM [inhibitor, partial curve, poor fit]
COc1ccc(-c2cnc(C(N)=O)c(=O)[nH]2)cc1		active: 6.31 µM
CCOCCCNC(=O)c1ccc2c(c1)N(CC)C(=O)c1ccccc1S2=O (centres undefined)	inactive: -13.6%	
CC(C)(C)c1ccc(C(=O)c2cn[nH]c2-c2ccccc2O)cc1		inconclusive: 126 µM [inhibitor, single point]
CC(C(=O)Nc1ccc(F)cc1Cl)N1CCN(c2ccc(O)cc2)CC1 (centres undefined)		active: 39.8 µM
Cc1ccc2nc(/C(C#N)=C/c3sccc3C)[nH]c2c1		inconclusive: 0.112 µM [inhibitor, full curve, poor fit]
Oc1ccc(-c2ccc(O)cc2)cc1		inconclusive: 89.1 µM [inhibitor, partial curve, poor fit]
CN(C)CCCNC(=O)Cn1c(-c2ccccc2)cc2ccccc21	inactive: -5.21%	
CCN1CCN(c2ccc(S(=O)(=O)N3CCOCC3)cc2NC(=O)c2ccc(Cl)cc2Cl)CC1		inconclusive: 2.82 µM [inhibitor, full curve, poor fit]
O=C(O)CCSC(C(=O)N1CCCCC1)c1ccccc1 (centres undefined)	inactive: -92.3%	
O=C(CC1(C(=O)O)CCCCC1)Nc1ccccc1CO		inconclusive: 31.6 µM [inhibitor, single point]
CSc1ccc(C2c3c(oc4ccc(F)cc4c3=O)C(=O)N2c2ccc(C)cn2)cc1 (centres undefined)		inconclusive: 56.2 µM [inhibitor, partial curve, poor fit]
